Data taken from patent publication US20210238283A1.
These are yes or no findings as the source states them, for the method shown. Some entries that bind do so weakly or less than the wild type. For some of these results: Tags and fused reporters may be left off the sequences shown.

The chains behind the UniProt entries cited, without tags or fusion partners. Residues count along the entry.
UniProt Q61790, residues 24-521: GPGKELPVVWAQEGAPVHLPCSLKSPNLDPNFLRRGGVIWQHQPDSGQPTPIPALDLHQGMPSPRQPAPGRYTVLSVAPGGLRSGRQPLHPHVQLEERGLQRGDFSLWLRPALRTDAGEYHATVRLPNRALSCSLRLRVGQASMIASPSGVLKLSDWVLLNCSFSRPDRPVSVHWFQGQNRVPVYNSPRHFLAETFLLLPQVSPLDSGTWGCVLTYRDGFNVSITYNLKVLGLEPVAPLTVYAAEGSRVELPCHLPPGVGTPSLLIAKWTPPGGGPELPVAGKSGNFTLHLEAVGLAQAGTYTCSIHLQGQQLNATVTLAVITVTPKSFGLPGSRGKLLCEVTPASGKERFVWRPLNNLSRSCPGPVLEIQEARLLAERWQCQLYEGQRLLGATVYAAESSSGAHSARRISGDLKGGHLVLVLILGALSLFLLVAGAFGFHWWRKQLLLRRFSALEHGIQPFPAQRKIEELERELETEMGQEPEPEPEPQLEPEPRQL

Tests used:
[1] = biological target: human LAG-3 overexpressed on cells (human) (UniProt P18627); assay: flow cytometry, HEK293E cells overexpressing LAG-3, antibody 2 µg/ml
[2] = biological target: mouse LAG-3 overexpressed on HEK293E cells (mouse) (UniProt Q61790); assay: as above
[3] = biological target: T1, recombinant human LAG-3-his (#16498-H08H, Sino Biological Inc.) (human) (UniProt P18627); assay: scFv phage ELISA on coated antigen, A490
T1 sequence (looked up): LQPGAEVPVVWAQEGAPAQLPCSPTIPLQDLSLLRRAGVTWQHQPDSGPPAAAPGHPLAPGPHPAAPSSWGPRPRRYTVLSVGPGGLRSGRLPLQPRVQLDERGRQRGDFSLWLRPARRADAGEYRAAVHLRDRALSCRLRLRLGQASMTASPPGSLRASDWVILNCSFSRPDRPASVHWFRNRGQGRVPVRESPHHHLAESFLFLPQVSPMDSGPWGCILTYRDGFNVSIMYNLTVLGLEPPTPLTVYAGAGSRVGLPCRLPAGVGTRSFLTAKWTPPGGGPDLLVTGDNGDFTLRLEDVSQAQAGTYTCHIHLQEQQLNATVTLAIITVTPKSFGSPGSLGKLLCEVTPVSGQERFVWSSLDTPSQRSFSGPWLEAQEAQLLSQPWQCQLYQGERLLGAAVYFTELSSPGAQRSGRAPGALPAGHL

[4] = biological target: T1, recombinant human LAG-3-his (#16498-H08H, Sino Biological Inc.) (human); assay: ELISA on coated recombinant LAG-3 protein, A490

binding [1]: binds
binding [2]: binds
binding [3]: binds
binding [4]: binds
B1: LAG3-1E09_AM_2H01 (antibody, V domains shown)
VH: EVQLVESGGDLVQPGGSLRLSCAASGFTFSDHYMNWVRQAPGKGLEWVAYIDTSATYIYYADSVKGRFTISRDNAKNSLYLQMNSLRAEDTAVYYCARDNWGSLDYWGQGTLVTVSS
VL: DIQMTQSPSSLSASVGDRVTITCQASQDISNYLNWYQQKPGKAPNLLIYDASTLETGVPSRFSGSGYGTDFTLTISGLQPDDFALYYCQQSYSTPYSFGPGTKVEIK
